Test results: PubChem BioAssay AID493014 (National Center for Advancing Translational Sciences (NCATS), 2011)
The list shows a part of the results. Shown are side measurements of this screen, not its main read-out; they come without a call. The list favours compounds with an active or inconclusive main result. Words in brackets tell the shape of the fitted curve; partial curves, single points and poor fits give uncertain potencies.

Assay: qHTS Assay to Find Inhibitors of Chronic Active B-Cell Receptor Signaling
Conditions: ABC-DLBCL IkBa-CBG/CBR reporter, luminescence ratio (green luciferase fused to IkBa over red control in TMD8 lymphoma cells), 4 h
In short: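 Doxycycline induced both beetle luciferases in TMD8 lymphoma cells; IKK-driven degradation limits the IkappaBalpha-fused green signal, while red luminescence normalises for cell number and nonspecific effects. Compounds tested up to 46 uM, 4 hrs.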

[1] = measured here: CBR red luminescence, cell number
[2] = measured here: IkBa-CBG green luminescence

Compound | AC50 [1] | AC50 [2]
COc1ccc(-n2c(Cn3c(=O)sc4ccccc43)nnc2SCC(=O)N2CCCC2)cc1 | 4.61 µM [rising, partial curve] | –
CC1CCCC(NC(=O)C2CCN(S(=O)(=O)N3CCC4(CC3)OCCO4)CC2)C1C (stereo unspecified) | 3.55 µM [rising, partial curve, poor fit] | –
CCC(=O)Nc1ccc2c(c1)ncn2-c1ccccc1C | – | 35.5 µM [falling, partial curve, poor fit]
O=C(COc1ccc(Br)cc1CO)Nc1ccc(S(=O)(=O)N2CCCCC2)cc1 | 23.1 µM [falling, single point] | –
O=C(NNC(=O)c1sc2ccccc2c1Cl)Nc1ccc(Cl)cc1 | 12.6 µM [rising, single point] | –
O=C(Nc1cccc(Br)c1)c1ccccc1-c1ccccc1 | 6.51 µM [falling, full curve, poor fit] | –
COc1ccc2[nH]c(C)c(CCNC(=S)Nc3cccc(C)c3)c2c1 | 1.3 µM [rising, partial curve, poor fit] | –
CN1N=C(c2ccc(F)c(F)c2)CSC1=NCc1ccccc1 | 1 µM [rising, partial curve, poor fit] | –
O=[N+]([O-])c1cccc(N=NN(CCO)c2cccc([N+](=O)[O-])c2)c1 | 14.6 µM [rising, partial curve] | –
Cc1ccc(NC(=O)c2ccc(NS(=O)(=O)c3cccc4cccnc34)cc2)cc1 | 17.8 µM [falling, single point] | –
COc1ccc(N2C(=O)C(Cl)=C(N3CCCC3)C2=O)cc1 | 35.5 µM [rising, single point] | –
COc1ccc(OC)c(C(C[N+](=O)[O-])c2c(C)cc3ccccn23)c1 (stereo unspecified) | 3.55 µM [falling, full curve] | –
O=C(/C=C/c1ccc([N+](=O)[O-])cc1)NCCc1ccccc1 | 14.1 µM [rising, single point] | –
COc1ccc2c(c1)OC(=O)CC2c1cc(OC)c(OC)c(OC)c1 (stereo unspecified) | 25.9 µM [rising, single point] | 23.1 µM [falling, partial curve, poor fit]
O=C(CCNc1n[nH]c(=O)[nH]c1=O)N/N=C/c1ccc(C(F)(F)F)cc1 | 0.708 µM [rising, full curve, poor fit] | –
CCNS(=O)(=O)c1ccc(NC(=O)Nc2cccc(OC)c2)cc1 | 18.4 µM [falling, single point] | –
Cc1oc(-c2ccc(Cl)cc2)cc1C(=O)/C(C#N)=C/Nc1ccccc1 | 2.82 µM [rising, partial curve] | –
COc1ccc(/C=N/NC(=O)CCn2cnc(-c3ccccc3)c2-c2ccccc2)cc1OC | 9.2 µM [rising, partial curve, poor fit] | 16.4 µM [falling, partial curve]
COc1ccc(Nc2cc(C(=O)N3CCc4ccccc4C3)c3ccccc3n2)c(OC)c1 | 17.8 µM [falling, single point] | –
Brc1ccc(OCc2ccccc2)c(CNCc2ccncc2)c1 | 35.5 µM [falling, single point] | –

Compound | AC50 [1] | AC50 [2]
CCOC(=O)c1c(OCC)[nH]c2ccc(O)cc12 | 0.82 µM [falling, full curve, poor fit] | –
CCN(CCNC(=O)c1ccc2nc(-c3ccccc3NC(C)=O)c(=O)[nH]c2c1)c1ccccc1 | 10.3 µM [falling, partial curve, poor fit] | –
CCNC(=S)N/N=C/c1sc(N2CCCCC2)nc1-c1cccs1 | 6.51 µM [falling, single point] | –
CCOc1ccccc1NC(=O)CN1CCC(C(=O)c2ccc(OC)cc2)CC1 | 6.31 µM [rising, single point] | –
CCOC(=O)c1c(C)[nH]c(C)c1C(=O)COc1ncnc2cc([N+](=O)[O-])ccc12 | 10 µM [falling, partial curve] | –
CCCCNc1c([N+](=O)[O-])cc(C)cc1[N+](=O)[O-] | 25.1 µM [rising, partial curve] | –
CC(=O)Nc1ccc(NC(=O)C(C)OC(=O)CCCN2C(=O)c3cccc4cccc(c34)C2=O)cc1 (stereo unspecified) | 3.66 µM [rising, full curve] | –
CSC(=NNC(=O)c1ccc(O)cc1)SC | 10.3 µM [falling, partial curve, poor fit] | –
COc1ccc(NC(=S)NC(NC(C)=O)C(Cl)(Cl)Cl)c([N+](=O)[O-])c1 (stereo unspecified) | 8.2 µM [falling, partial curve, poor fit] | –
O=C1C=C(c2ccc3ncccc3c2)C[C@@H](c2ccc(Cl)cc2)C1 | 29.1 µM [falling, single point] | –
COc1ccc2c(C(=O)c3ccc(C)cc3)n(Cc3ccc(C(N)=O)cc3)[n+]([O-])c2c1 | 1.03 µM [falling, full curve] | –
COc1ccc(/C=N/NC(=O)c2ccc(F)cc2)cc1CN1CCc2cc(OC)c(OC)cc2C1C (stereo unspecified) | 5.62 µM [falling, partial curve] | –
COc1ccc(NC(=O)CCNC(C)=O)cc1NS(=O)(=O)c1ccc(F)cc1 | 3.26 µM [falling, partial curve, poor fit] | –
Cn1ccnc1Sc1cc(NCCCO)c([N+](=O)[O-])c2nonc12 | 20 µM [falling, partial curve, poor fit] | –
COc1cccc(C(=O)N/N=C/c2ccc(OC)c(COc3ccccc3C(N)=O)c2)c1 | 7.08 µM [rising, partial curve] | –
COc1ccc(OC)c(S(=O)(=O)N2Cc3ccccc3CC2C(=O)Nc2nccs2)c1 (stereo unspecified) | 0.82 µM [rising, full curve, poor fit] | –
Cc1cccc(Nc2nnc(SC/C(O)=C(\C#N)c3nc4ccccc4[nH]3)s2)c1 | 6.51 µM [rising, full curve] | 29.1 µM [falling, single point]
CC(C(=O)Nc1ccccc1-c1ccccc1)N1CCN(S(=O)(=O)c2ccccc2)CC1 (stereo unspecified) | 1.3 µM [falling, full curve] | –
Cc1ccc(-n2nnnc2-c2cnc3cc4c(cc3c2C)OCO4)cc1 | 0.0517 µM [rising, full curve] | –
COC(=O)C1=C(C)N(Cc2ccccc2)C(=NCc2ccccc2)N[C@H]1c1cccc(F)c1 | 8.91 µM [falling, partial curve, poor fit] | 31.6 µM [rising, single point]

Gathered by group: the entries above with two or more sulfur atoms
Compound | AC50 [1] | AC50 [2]
COc1ccc(-n2c(Cn3c(=O)sc4ccccc43)nnc2SCC(=O)N2CCCC2)cc1 | 4.61 µM [rising, partial curve] | –
CCNC(=S)N/N=C/c1sc(N2CCCCC2)nc1-c1cccs1 | 6.51 µM [falling, single point] | –
CSC(=NNC(=O)c1ccc(O)cc1)SC | 10.3 µM [falling, partial curve, poor fit] | –
COc1ccc(OC)c(S(=O)(=O)N2Cc3ccccc3CC2C(=O)Nc2nccs2)c1 (stereo unspecified) | 0.82 µM [rising, full curve, poor fit] | –
Cc1cccc(Nc2nnc(SC/C(O)=C(\C#N)c3nc4ccccc4[nH]3)s2)c1 | 6.51 µM [rising, full curve] | 29.1 µM [falling, single point]

Next part

Compound | AC50 [1] | AC50 [2]
CCOC(=O)N1CCC(NC(=O)CS(=O)(=O)Cc2nc(-c3ccccc3C)oc2C)CC1 | 20.6 µM [rising, single point] | 20.6 µM [falling, partial curve, poor fit]
CCNc1nc(NCC)nc(SCCOc2ccc(C)cc2)n1 | 29.1 µM [falling, single point] | –
Cc1cc(C)n2nc(CCc3nc4nc(C)cc(C)n4n3)nc2n1 | 6.31 µM [rising, single point] | –
O=C(N/N=C/C1CC2CCC1C2)c1c[nH]c2ccccc12 (stereo unspecified) | 22.4 µM [falling, single point] | –
O=C(Nc1cc(=O)[nH]c2nc(-c3ccc(Cl)cc3)nn12)c1ccccc1 | 7.08 µM [falling, partial curve] | –
NC(=O)C1CC(=O)N(c2ccc(OCc3ccc(Cl)cc3)cc2)C1 (stereo unspecified) | 3.98 µM [rising, full curve] | –
O=[N+]([O-])c1ccc(C2CN=C(Nc3ccccc3)S2)cc1 (stereo unspecified) | 20 µM [falling, partial curve] | –
COc1ccccc1/C=C1\SC(=S)N(CCC(=O)Nc2cc(C)on2)C1=O | 2.24 µM [falling, full curve] | –
CN1CCN(c2ccccc2NC(=O)COc2ccc(Cl)cc2)CC1 | 5.62 µM [rising, partial curve, poor fit] | –
O=C(Nc1ccc(F)c(Cl)c1)Nc1ccc(Cl)cn1 | 0.794 µM [rising, full curve, poor fit] | –
CCOC(=O)C1=C(C)OC(N)=C(C#N)C1c1cccs1 (stereo unspecified) | 35.5 µM [falling, single point] | –
COc1cccc(-c2nc(-c3ccccc3)no2)c1 | 23.1 µM [falling, single point] | –
COc1ccc(Nc2cc(C(=O)NCCCN3CCN(c4ccc(OC)cc4)CC3)c3ccccc3n2)cc1 | 12.6 µM [falling, single point] | 4.47 µM [rising, partial curve, poor fit]
COc1cc(Cl)ccc1S(=O)(=O)n1nc(C)cc1C | 6.51 µM [falling, single point] | –
Cc1ccc(S(C)(=O)=N/C=C2\C(=O)c3sccc3N(C)S2(=O)=O)cc1 (stereo unspecified) | 12.6 µM [rising, partial curve, poor fit] | –
COc1cccc(CCNC(=O)c2cccc(NC(=O)C3=C(C)OCCS3)c2)c1 | 7.94 µM [falling, partial curve] | –
COc1ccc2cc(C#N)c(SCC(=O)N3CC(=O)Nc4ccccc43)nc2c1 | 11.2 µM [falling, partial curve, poor fit] | –
O=C(CCn1cnnn1)Nc1ccc(F)cc1 | 1.12 µM [falling, partial curve, poor fit] | –
C[C@@H]1CN([C@@H](C)CO)C(=O)Cc2cc(NC(=O)Nc3cccc4ccccc34)ccc2O[C@@H]1CN(C)Cc1ccc(C(F)(F)F)cc1 | 14.6 µM [falling, single point] | –
Cc1ccc(-c2nc3cccnc3s2)cc1NC(=O)C1c2ccccc2Oc2ccccc21 | 13 µM [rising, partial curve] | –
